Earlier results in patent US20240199754A1 (VANCOUVER BIOTECH LTD., priority 2021, published 2024).
Some of these results come from one statement about several compounds together.

Assays:
human GnRH receptor = target: T1, human GnRH receptor (Homo sapiens, UniProt P30968); conditions: read-out: binding affinity (Kd) to human GnRH receptor; cited from earlier work
T1 sequence (P30968 1-328): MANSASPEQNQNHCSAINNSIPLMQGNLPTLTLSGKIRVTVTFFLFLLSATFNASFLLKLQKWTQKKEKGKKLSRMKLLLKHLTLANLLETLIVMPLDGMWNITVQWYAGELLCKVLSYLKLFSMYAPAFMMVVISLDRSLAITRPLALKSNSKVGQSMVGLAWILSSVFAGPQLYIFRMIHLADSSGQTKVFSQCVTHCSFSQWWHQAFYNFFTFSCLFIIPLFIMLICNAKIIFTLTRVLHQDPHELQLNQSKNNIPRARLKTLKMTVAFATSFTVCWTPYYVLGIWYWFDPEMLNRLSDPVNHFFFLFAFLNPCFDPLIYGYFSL

[1] = in most cases; cited from earlier work

## Antide
Human GnRH receptor
  Kd: 1 to 4 nM
[1]
  half-life: 1 to 10 h
